Results are given in words; binding and its absence hold for the method and conditions named. In cells and extracts the contact can be indirect. These calls come from enrichment with a bait or labelling near it, and not all partners need be listed. Blank lines part the entries; values can stand above or below the binder they belong to.
How the values were obtained:
[1] = biological target: Agap2 (mouse (endogenous in adult mouse cortex)) (UniProt Q3UHD9); assay: affinity purification with mass spectrometry; immunoprecipitation of endogenous Agap2 with its antibody and protein G Dynabeads from the non-PSD (Triton-soluble) fraction of adult mouse cortex, 2 mg protein, 4 degrees Celsius overnight; washes 25 mM Tris pH 7.4, 150 mM NaCl, 1 mM EDTA, 1% Triton X-100; HPLC-MS/MS; positive if at least two peptides in at least two assays and absent in anti-GST controls
[2] = biological target: Agap2 (mouse (endogenous in adult mouse cortex)) (UniProt Q3UHD9); assay: affinity purification with mass spectrometry; immunoprecipitation of the endogenous bait (Agap2, Syngap1 or Kalirin) with its antibody and protein G Dynabeads from the PSD (DOC-soluble) fraction of adult mouse cortex, 2 mg protein, 4 degrees Celsius overnight; washes 25 mM Tris pH 7.4, 150 mM NaCl, 1 mM EDTA, 1% sodium deoxycholate; HPLC-MS/MS; positive if at least two peptides in at least two assays and absent in anti-GST controls

Amino acid sequences for entries named in this document (tags omitted).
UniProt Q3UHD9: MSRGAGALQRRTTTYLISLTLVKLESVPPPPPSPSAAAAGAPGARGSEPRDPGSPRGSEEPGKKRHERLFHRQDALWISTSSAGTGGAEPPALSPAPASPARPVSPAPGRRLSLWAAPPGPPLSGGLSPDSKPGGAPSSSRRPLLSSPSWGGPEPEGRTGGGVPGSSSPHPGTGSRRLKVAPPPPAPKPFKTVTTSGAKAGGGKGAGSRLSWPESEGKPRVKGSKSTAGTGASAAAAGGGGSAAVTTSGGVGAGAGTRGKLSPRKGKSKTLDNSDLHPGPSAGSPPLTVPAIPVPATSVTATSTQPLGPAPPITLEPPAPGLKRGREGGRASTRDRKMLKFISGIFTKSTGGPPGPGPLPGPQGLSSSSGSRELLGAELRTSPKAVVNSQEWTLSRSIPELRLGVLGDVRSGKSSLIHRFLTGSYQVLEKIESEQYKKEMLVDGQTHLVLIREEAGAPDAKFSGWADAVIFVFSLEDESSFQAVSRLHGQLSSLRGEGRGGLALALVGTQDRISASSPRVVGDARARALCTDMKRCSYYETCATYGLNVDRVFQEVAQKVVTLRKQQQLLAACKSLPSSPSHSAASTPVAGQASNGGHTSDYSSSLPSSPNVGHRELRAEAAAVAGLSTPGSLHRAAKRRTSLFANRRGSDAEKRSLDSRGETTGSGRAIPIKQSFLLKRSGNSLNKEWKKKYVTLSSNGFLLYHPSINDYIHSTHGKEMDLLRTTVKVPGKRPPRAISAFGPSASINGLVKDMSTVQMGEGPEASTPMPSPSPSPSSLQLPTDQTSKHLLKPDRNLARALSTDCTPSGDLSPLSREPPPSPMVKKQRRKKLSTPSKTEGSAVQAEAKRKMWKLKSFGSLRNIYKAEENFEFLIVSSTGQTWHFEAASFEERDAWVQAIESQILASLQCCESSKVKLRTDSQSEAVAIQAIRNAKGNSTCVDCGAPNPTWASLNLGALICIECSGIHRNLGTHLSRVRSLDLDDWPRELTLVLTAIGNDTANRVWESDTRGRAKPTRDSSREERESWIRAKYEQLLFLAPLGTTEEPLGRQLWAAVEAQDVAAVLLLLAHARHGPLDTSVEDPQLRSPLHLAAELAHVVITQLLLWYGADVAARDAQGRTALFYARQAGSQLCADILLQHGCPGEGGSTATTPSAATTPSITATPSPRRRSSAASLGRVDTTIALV

- binding [1]: binds
B1: Dclk1 (enzyme, UniProt Q9JLM8 1-756)
chain: MSFGRDMELEHFDERDKAQRYSRGSRVNGLPSPTHSAHCSFYRTRTLQTLSSEKKAKKVRFYRNGDRYFKGIVYAISPDRFRSFEALLADLTRTLSDNVNLPQGVRTIYTIDGLKKISSLDQLVEGESYVCGSIEPFKKLEYTKNVNPNWSVNVKTTSASRAVSSLATAKGGPSEVRENKDFIRPKLVTIIRSGVKPRKAVRILLNKKTAHSFEQVLTDITDAIKLDSGVVKRLYTLDGKQVMCLQDFFGDDDIFIACGPEKFRYQDDFLLDESECRVVKSTSYTKIASASRRGTTKSPGPSRRSKSPASTSSVNGTPGSQLSTPRSGKSPSPSPTSPGSLRKQRISQHGGSSTSLSSTKVCSSMDENDGPGEGDELGRRHSLQRGWRREESEEGFQIPATITERYKVGRTIGDGNFAVVKECIERSTAREYALKIIKKSKCRGKEHMIQNEVSILRRVKHPNIVLLIEEMDVPTELYLVMELVKGGDLFDAITSTSKYTERDASGMLYNLASAIKYLHSLNIVHRDIKPENLLVYEHQDGSKSLKLGDFGLATIVDGPLYTVCGTPTYVAPEIIAETGYGLKVDIWAAGVITYILLCGFPPFRGSGDDQEVLFDQILMGQVDFPSPYWDNVSDSAKELINMMLLVNVDQRFSAVQVLEHPWVNDDGLPENEHQLSVAGKIKKHFNTGPKPSSTAAGVSVIATTALDKERQVFRRRRNQDVRSRYKAQPAPPELNSESEDYSPSSSETVRSPNSPF

- binding [2]: binds
- binding [1]: binds
B2: Dab2ip (protein, UniProt Q3UHC7 1-1189)
chain: MSAGGNARKSTGRPSYYYRLLRRPRLQRQRSRSRSRTRPARESPQERPGSRRSLPGSMSEKNPSMEPSASTPFRVTGFLSRRLKGSIKRTKSQPKLDRNHSFRHILPGFRSAAAAAADNERSHLMPRLKESRSHESLLSPSSAVEALDLSMEEEVIIKPVHSSILGQDYCFEVTTSSGSKCFSCRSAAERDKWMENLRRAVHPNKDNSRRVEHILKLWVIEAKDLPAKKKYLCELCLDDVLYARTTSKLKTDNVFWGEHFEFHNLPPLRTVTVHLYRETDKKKKKERNSYLGLVSLPAASVAGRQFVEKWYPVVTPNPKGGKGPGPMIRIKARYQTVSILPMEMYKEFAEHITNHYLGLCAALEPILSAKTKEEMASALVHILQSTGKVKDFLTDLMMSEVDRCGDNEHLIFRENTLATKAIEEYLKLVGQKYLQDALGEFIKALYESDENCEVDPSKCSSADLPEHQGNLKMCCELAFCKIINSYCVFPRELKEVFASWRQECSSRGRPDISERLISASLFLRFLCPAIMSPSLFNLLQEYPDDRTARTLTLIAKVTQNLANFAKFGSKEEYMSFMNQFLEHEWTNMQRFLLEISNPETLSNTAGFEGYIDLGRELSSLHSLLWEAVSQLDQSVVSKLGPLPRILRDVHTALSTPGSGQLPGTNDLASTPGSGSSSVSAGLQKMVIENDLSGLIDFTRLPSPTPENKDLFFVTRSSGVQPSPARSSSYSEANEPDLQMANGSKSLSMVDLQDARTLDGEAGSPVGPDALPADGQVPATQLLAGWPARAAPVSLAGLATVRRAVPTPTTPGTSEGAPGRPQLLAPLSFQNPVYQMAAGLPLSPRGLGDSGSEGHSSLSSHSNSEELAAAAKLGSFSTAAEELARRPGELARRQMSLTEKGGQPTVPRQNSAGPQRRIDQPPPPPPPPPPAPRGRTPPTLLSTLQYPRPSSGTLASASPDWAGPGTRLRQQSSSSKGDSPELKPRAMHKQGPSPVSPNALDRTAAWLLTMNAQLLEDEGLGPDPPHRDRLRSKEELSQAEKDLAVLQDKLRISTKKLEEYETLFKCQEETTQKLVLEYQARLEEGEERLRRQQEDKDIQMKGIISRLMSVEEELKKDHAEMQAAVDSKQKIIDAQEKRIASLDAANARLMSALTQLKERYSMQARNGVSPTNPTKLQITENGEFRNSSNC

Source: paper PMC5509740
